Literature values in article PMC12406256, “Food Additives Inhibit Intestinal Drug Transporters but Have Limited Effect on In Vitro Drug Permeability” (Molecular Pharmaceutics, 2025).
Certain results were filed several times, with different values. This is not the full list of results. There may be further records. The values listed for one entry differ for a reason that is not stated; some may be repeats, others may stem from another dose, organism or construct than stated.

Sequences of proteins named here, by UniProt entry; tags and fusion partners are left off.
UniProt Q9UNQ0, whole entry: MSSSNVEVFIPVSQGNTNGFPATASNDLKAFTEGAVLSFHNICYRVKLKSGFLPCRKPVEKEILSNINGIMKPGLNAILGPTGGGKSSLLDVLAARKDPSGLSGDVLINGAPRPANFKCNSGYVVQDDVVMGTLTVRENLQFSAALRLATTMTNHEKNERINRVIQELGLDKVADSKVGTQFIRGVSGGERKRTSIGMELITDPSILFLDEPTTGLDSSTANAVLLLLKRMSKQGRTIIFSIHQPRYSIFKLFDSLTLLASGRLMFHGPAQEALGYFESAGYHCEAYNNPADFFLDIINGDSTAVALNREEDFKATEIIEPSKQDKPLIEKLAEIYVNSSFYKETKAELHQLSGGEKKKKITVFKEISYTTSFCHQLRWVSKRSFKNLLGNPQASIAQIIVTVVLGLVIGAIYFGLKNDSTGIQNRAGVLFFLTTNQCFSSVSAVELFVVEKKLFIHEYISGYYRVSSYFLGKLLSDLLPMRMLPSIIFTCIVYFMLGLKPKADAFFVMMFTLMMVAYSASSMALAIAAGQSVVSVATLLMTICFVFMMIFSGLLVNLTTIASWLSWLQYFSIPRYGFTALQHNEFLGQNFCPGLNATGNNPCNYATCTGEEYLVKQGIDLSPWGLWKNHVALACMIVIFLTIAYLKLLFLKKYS

Biological target: BCRP (Homo sapiens, UniProt Q9UNQ0)
Conditions: read-out: IC50 (95% CI), BCRP; previously characterized inhibitors; ref previous studies; tested form: Na salt; cited from earlier work

SMILES	IC50
O=C([O-])C1=NN(c2ccc(S(=O)(=O)[O-])cc2)C(=O)C1N=Nc1ccc(S(=O)(=O)[O-])cc1.[Na+].[Na+].[Na+] (centres unmarked) [tartrazine]	23.5 µM and 5.61 µM
COc1cc(S(=O)(=O)[O-])c(C)cc1N=Nc1c(O)ccc2cc(S(=O)(=O)[O-])ccc12.[Na+].[Na+] [allura red AC]	13.3 µM and 4.42 µM
